Source: PubChem BioAssay AID1259254 (NCATS, 2017)

- Aim: 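Genome-wide screen for genes that prevent DNA re-replication in cancer cells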 (primary screen)
- Cell system: human HCT116 colorectal cancer cells
- Reagent: single siRNA against human genes
- Time to read-out: 3 days
- Measured: 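Imaged Hoechst DNA stain sorts each cell into a cycle phase by DNA amount; per plate, G2 fraction set to 0% for non-targeting and 100% for GMNN siRNA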
- Scale: G2 robust z-score and G2 cells, % of GMNN control: higher = more G2 cells, more excess DNA replication; raw share of cells in G2: higher = larger share of cells with G2 DNA content
- Call rule: 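An siRNA counts as active if its G2 robust z-score lies at least 5 MADs above the screen median; here such calls match roughly 38% of GMNN control or more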
Shown is a random part of about 59,000 deposited reagents. In the full data, about 1,550 (2.6%) are marked active. 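G2 share is only a proxy for re-replication; each gene was hit by three separate siRNAs, and active genes were retested.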 The raw values are shown without normalisation. The numbers tell different reagents against one gene apart. Not given: the amount of reagent.

gene symbol	siRNA no.	G2 robust z-score	G2 cells, % of GMNN control	raw share of cells in G2 (%)	call
PNMA6A (PNMA family member 6A)	1	0.102	3.68	5.65	inactive
PNMA6A (PNMA family member 6A)	2	-0.0708	2.47	3.77	inactive
PNMA6A (PNMA family member 6A)	3	0.419	5.92	4.8	inactive
RAB14 (RAB14, member RAS oncogene family)	1	-0.908	-3.42	4.4	inactive
RAB14 (RAB14, member RAS oncogene family)	2	0.0964	3.65	5.2	inactive
RAB14 (RAB14, member RAS oncogene family)	3	1.39	12.8	8.95	inactive
IGFL1 (IGF like family member 1)	1	0.206	4.42	5.5	inactive
IGFL1 (IGF like family member 1)	2	2.2	18.4	11.3	inactive
IGFL1 (IGF like family member 1)	3	-0.587	-1.16	3.72	inactive
FPR1 (formyl peptide receptor 1)	1	0.318	5.2	7.7	inactive
FPR1 (formyl peptide receptor 1)	2	-0.207	1.51	5.04	inactive
FPR1 (formyl peptide receptor 1)	3	0.289	5	4.8	inactive
MORC4 (MORC family CW-type zinc finger 4)	1	0.424	5.95	6.35	inactive
MORC4 (MORC family CW-type zinc finger 4)	2	-0.429	-0.0506	4.77	inactive
MORC4 (MORC family CW-type zinc finger 4)	3	1.63	14.5	11.5	inactive
TBC1D23 (TBC1 domain family member 23)	1	0.198	4.36	8.34	inactive
TBC1D23 (TBC1 domain family member 23)	2	-0.52	-0.688	4.19	inactive
TBC1D23 (TBC1 domain family member 23)	3	1.17	11.2	9.01	inactive
HSPA13 (heat shock protein family A (Hsp70) member 13)	1	-0.687	-1.86	2.72	inactive
HSPA13 (heat shock protein family A (Hsp70) member 13)	2	-0.873	-3.17	3.36	inactive
HSPA13 (heat shock protein family A (Hsp70) member 13)	3	0.62	7.33	5.77	inactive
NFE2L1 (NFE2 like bZIP transcription factor 1)	1	0.49	6.42	6.01	inactive
NFE2L1 (NFE2 like bZIP transcription factor 1)	2	-0.0605	2.54	6.04	inactive
NFE2L1 (NFE2 like bZIP transcription factor 1)	3	0.963	9.74	6.64	inactive
L1CAM (L1 cell adhesion molecule)	1	1.2	11.4	6.97	inactive
L1CAM (L1 cell adhesion molecule)	2	0.903	9.32	9.16	inactive
L1CAM (L1 cell adhesion molecule)	3	-0.393	0.199	5.44	inactive
CARD18 (caspase recruitment domain family member 18)	1	-1.45	-7.25	1.78	inactive
CARD18 (caspase recruitment domain family member 18)	2	0.477	6.32	6.52	inactive
CARD18 (caspase recruitment domain family member 18)	3	-0.0349	2.72	6.77	inactive

The list goes on; the last 5 above are carried over.
gene symbol	siRNA no.	G2 robust z-score	G2 cells, % of GMNN control	raw share of cells in G2 (%)	call
L1CAM (L1 cell adhesion molecule)	2	0.903	9.32	9.16	inactive
L1CAM (L1 cell adhesion molecule)	3	-0.393	0.199	5.44	inactive
CARD18 (caspase recruitment domain family member 18)	1	-1.45	-7.25	1.78	inactive
CARD18 (caspase recruitment domain family member 18)	2	0.477	6.32	6.52	inactive
CARD18 (caspase recruitment domain family member 18)	3	-0.0349	2.72	6.77	inactive
APOL6 (apolipoprotein L6)	1	-0.883	-3.24	3.02	inactive
APOL6 (apolipoprotein L6)	2	-0.135	2.02	6.27	inactive
APOL6 (apolipoprotein L6)	3	-0.0853	2.37	5.66	inactive
LSM12 (LSM12 homolog)	1	-0.972	-3.87	2.54	inactive
LSM12 (LSM12 homolog)	2	-0.303	0.838	3.58	inactive
LSM12 (LSM12 homolog)	3	-0.187	1.65	2.3	inactive
CCL11 (C-C motif chemokine ligand 11)	1	-0.651	-1.61	3.42	inactive
CCL11 (C-C motif chemokine ligand 11)	2	-0.276	1.03	6.03	inactive
CCL11 (C-C motif chemokine ligand 11)	3	1.62	14.4	9.48	inactive
JPH2 (junctophilin 2)	1	1.79	15.6	10.5	inactive
JPH2 (junctophilin 2)	2	-0.217	1.44	5.15	inactive
JPH2 (junctophilin 2)	3	-0.787	-2.57	2.22	inactive
FCGBP (Fc gamma binding protein)	1	-0.632	-1.48	4.48	inactive
FCGBP (Fc gamma binding protein)	2	-0.291	0.921	4.26	inactive
FCGBP (Fc gamma binding protein)	3	-0.46	-0.267	3.25	inactive
PHLDA2 (pleckstrin homology like domain family A member 2)	1	-0.196	1.59	5.84	inactive
PHLDA2 (pleckstrin homology like domain family A member 2)	2	-0.36	0.436	4.07	inactive
PHLDA2 (pleckstrin homology like domain family A member 2)	3	4.92	37.6	16.6	inactive
